Experimental findings from publication PMC11706498 are described below.

Sequences of proteins named here, by UniProt entry; tags and fusion partners are left off.
UniProt Q5AKU6: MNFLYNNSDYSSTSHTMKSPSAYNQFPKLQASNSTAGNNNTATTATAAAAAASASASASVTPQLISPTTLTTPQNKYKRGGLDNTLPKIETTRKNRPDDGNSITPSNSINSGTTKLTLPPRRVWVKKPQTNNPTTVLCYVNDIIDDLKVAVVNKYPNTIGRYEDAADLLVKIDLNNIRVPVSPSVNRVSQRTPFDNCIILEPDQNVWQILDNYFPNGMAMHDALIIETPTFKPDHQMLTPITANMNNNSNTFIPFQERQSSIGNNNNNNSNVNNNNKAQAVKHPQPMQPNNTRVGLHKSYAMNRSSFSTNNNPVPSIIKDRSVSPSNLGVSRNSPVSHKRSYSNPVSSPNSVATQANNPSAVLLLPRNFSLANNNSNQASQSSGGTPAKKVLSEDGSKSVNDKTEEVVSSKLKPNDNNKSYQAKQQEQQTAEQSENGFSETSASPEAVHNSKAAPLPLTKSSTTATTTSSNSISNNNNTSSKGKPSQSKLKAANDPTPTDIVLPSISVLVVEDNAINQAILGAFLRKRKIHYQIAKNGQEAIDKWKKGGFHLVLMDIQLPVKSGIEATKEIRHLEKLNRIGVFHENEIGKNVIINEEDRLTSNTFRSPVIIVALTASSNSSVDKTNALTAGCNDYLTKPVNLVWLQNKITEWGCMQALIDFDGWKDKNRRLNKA
UniProt A0A1D8PKE2: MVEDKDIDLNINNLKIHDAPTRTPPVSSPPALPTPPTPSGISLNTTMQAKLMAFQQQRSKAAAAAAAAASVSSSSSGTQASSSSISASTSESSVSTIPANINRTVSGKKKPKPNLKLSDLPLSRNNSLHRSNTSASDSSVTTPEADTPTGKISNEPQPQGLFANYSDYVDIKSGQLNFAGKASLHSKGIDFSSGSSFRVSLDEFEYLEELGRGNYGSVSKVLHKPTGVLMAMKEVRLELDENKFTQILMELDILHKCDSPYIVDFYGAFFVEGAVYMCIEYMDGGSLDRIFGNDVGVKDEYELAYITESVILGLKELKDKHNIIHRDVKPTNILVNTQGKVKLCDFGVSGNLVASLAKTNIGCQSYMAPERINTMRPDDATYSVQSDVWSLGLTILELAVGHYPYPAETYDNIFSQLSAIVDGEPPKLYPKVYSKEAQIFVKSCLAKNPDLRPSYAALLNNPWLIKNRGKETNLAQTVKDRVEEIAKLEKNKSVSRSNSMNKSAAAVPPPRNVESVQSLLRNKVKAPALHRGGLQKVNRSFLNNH

No constants are given. Whether binding was seen depends on the method and setting. In cells and extracts the contact can be indirect. Some results given as binding are weak or reduced against the parent protein; the word gives no strength.

For experiment [1], the target named is Ssk1-6His-myc (Ssk1 response regulator tagged with 6His-2myc) (C. albicans) (UniProt Q5AKU6). Briefly: co-IP; Ssk1-6His-myc precipitated with anti-myc agarose from extracts of cells expressing Pbs2-HA and Ssk1-6His-myc (JC2643); Pbs2-HA detected by anti-HA blot; unstressed cells.
Experiment [2] shares this target. The experiment is described as follows: co-IP; Ssk1-6His-myc precipitated with anti-myc agarose from extracts of cells expressing Ssk2-HA and Ssk1-6His-myc (JC2262); Ssk2-HA detected by anti-HA blot; cells unstressed or exposed to high salt, oxidative or low salt stress.

With “Pbs2-HA (Pbs2 MAPKK with a triple HA epitope tag) (from UniProt A0A1D8PKE2 1-545) (enzyme)”, the binding entry in experiment [1] is given as “no binding”.
With “Ssk2-HA (Ssk2 MAPKKK with a triple HA epitope tag) (from UniProt A0A1D8PM87 1-1483) (enzyme)”, in experiment [2], the binding entry is “binds”.
